In patent US20080248511A1, “METHODS TO QUENCH LIGHT FROM OPTICAL REACTIONS” (priority 2007, published 2008):
Where “and” joins values, the source holds several entries; their conditions need not be identical. Equal values may be shown once. For some of these results: The name of at least one read-out is uncertain. Some entries share one result that the patent states for a list of compounds.

Protein sequences, listed by entry. Tags and fused reporters are not part of them.
UniProt P08659, whole entry: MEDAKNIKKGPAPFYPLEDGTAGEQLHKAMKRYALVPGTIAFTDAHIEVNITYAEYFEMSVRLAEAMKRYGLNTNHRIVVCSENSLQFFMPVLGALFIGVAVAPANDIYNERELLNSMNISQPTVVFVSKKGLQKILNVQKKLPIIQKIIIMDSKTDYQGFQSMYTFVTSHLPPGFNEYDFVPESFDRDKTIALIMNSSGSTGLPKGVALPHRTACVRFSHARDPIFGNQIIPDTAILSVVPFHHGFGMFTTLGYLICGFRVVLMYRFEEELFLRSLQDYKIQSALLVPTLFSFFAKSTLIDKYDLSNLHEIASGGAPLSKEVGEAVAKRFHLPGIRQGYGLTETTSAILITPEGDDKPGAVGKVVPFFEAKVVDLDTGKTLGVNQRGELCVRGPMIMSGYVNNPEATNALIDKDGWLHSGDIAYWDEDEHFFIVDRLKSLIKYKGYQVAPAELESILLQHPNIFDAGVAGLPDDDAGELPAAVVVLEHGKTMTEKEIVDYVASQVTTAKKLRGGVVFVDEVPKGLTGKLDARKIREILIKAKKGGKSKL

What was measured:
[1] = target: T1, Renilla luciferase (Renilla reniformis, UniProt P27652); details: Matthews et al.; absence of cell debris and detergents; cited from earlier work
T1 sequence (P27652 1-311): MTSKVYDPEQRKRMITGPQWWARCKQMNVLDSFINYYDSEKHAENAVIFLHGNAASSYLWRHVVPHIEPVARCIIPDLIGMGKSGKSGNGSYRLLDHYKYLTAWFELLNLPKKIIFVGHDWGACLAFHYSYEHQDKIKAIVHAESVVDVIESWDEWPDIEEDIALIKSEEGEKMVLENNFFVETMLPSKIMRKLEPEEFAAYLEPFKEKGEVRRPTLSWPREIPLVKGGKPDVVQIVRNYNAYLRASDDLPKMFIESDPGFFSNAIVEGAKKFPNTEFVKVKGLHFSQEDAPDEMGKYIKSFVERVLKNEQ

[2] = target: T1, Renilla luciferase; assay: Detergent titration with Tergitol NP-9, digitonin or no lysing agent, Renilla luciferase (Example 4); format: biochemical
Method: Renilla luciferase-mediated luminescence was measured from samples containing 9.6 mM phosphate buffer pH 6.8, 2.7 mM KCl, 137 mM NaCl (in PBS), 0.1% gelatin, 75 nM coelentrazine (Promega) and 10.2 ng/ml Renilla luciferase. Reactions contained either no lysing agent, 0.5% Tergitol NP-9 or 20 μg/ml digitonin. The detergents to be tested were titrated to 0.05%, 0.005% or 0.0005% in the reactions prior to the addition of the Renilla luciferase. Renilla luciferase-mediated luminescence was measured as described herein.

[3] = target: T1, Renilla luciferase; format: biochemical; details: 0.5% detergent in Renilla Luciferase Assay Reagent
Method: (§1) The retained luminescence for each luciferase was calculated by dividing the luminescence in the presence of the detergent by the luminescence in the absence of the test detergent. The selectivity value for each of the test detergents was determined by dividing the retained firefly luciferase luminescence by the retained Renilla luciferase luminescence.
(§2) A set of detergents (Table 2; Sigma-Aldrich) was added at 0.5% (from a 5% or 10% stock solution) to either Luciferase Assay Reagent (Promega) or Renilla Luciferase Assay Reagent (Promega) and allowed to equilibrate at room temperature.
(§3) The firefly luciferase and Renilla luciferase enzymes were diluted as follows. […] In the absence of other detergents, this prevents sequestering of coelenterazine which inhibits Renilla luciferase-mediated luminescence.
(§4) The luciferase reactions were initiated by adding 40 μl of either the firefly or Renilla luciferase enzyme solution to 200 μl of the appropriate reagent solution (firefly luciferase enzyme solution+firefly luciferase reagent solution or Renilla luciferase enzyme solution+Renilla luciferase reagent solution, respectively). The reactions were performed in an opaque white, 96-well plate and luminescence was measured for 0.5 seconds per well using a Turner BioSystems Veritas™ Microplate luminometer. […]

[4] = target: firefly luciferase (Photinus pyralis, UniProt P08659); format: biochemical; details: 0.5% detergent in Luciferase Assay Reagent
Method: as §1, §2, §3, §4

Cc1ccccc1 [toluene]
Ki values [1]: 10^−4 to 10^−5 M

CCCCCCCCCCCC[N+](C)(C)Cc1ccccc1.[Br-] [Benzyldimethyldodecylammonium bromide]
selective quench of Renilla luciferase-mediated luminescence ([2]; in the absence of Tergitol NP-9): > 1500 fold
selective quench of Renilla luciferase-mediated luminescence ([2]; in the presence of Tergitol NP-9): < 8 fold

luciferyl sulfate
Ki [1]: 1 to 100 nM

NCCc1ccc(O)cc1 [tyramine]
Ki values [1]: 10^−4 to 10^−5 M

CCCCCCCCCCCCCCCC[N+](C)(C)C.[Cl-] [Cetyltrimethylammonium chloride]
Retained Renilla Luciferase Luminescence (%) [3]: 3.68%
Retained Firefly Luciferase Luminescence (%) [4]: 0.51% and 3.26%
